1 molecule from patent US20100098682A1 can be followed below.

In test [1] the target is Amyloid precursor protein (APP), full length (human) (UniProt P05067). Kind of test: αFLAG co-immunoprecipitation from co-transfected HeLa cell lysates (FIG. 1d).
For test [2] the target is unchanged. Description: αFLAG co-immunoprecipitation from co-transfected HeLa cell lysates, western blot. On the technique in general: Immunoblotting shows a protein as a band on a membrane.

No constants are given. Whether binding was seen depends on the method and setting. Binding seen in cells or lysates may run through a third protein. Some results given as binding are weak or reduced against the parent protein; the word gives no strength. Tags and fused reporters may be left off the sequences shown.

B1: FLAG-BRI2 1-131 (amino acids 1 to 131 of BRI2, N-terminal FLAG tag) (protein, not shown: small tags and cut ends)
chain: MVKVTFNSALAQKEAKKDEPKSGEEALIIPPDAVAVDCKDPDDVVPVGQRRAWCWCMCFGLAFMLAGVILGGAYLYKYFALQPDDVYYCGIKYIKDDVILNEPSADAPAALYQTIEENIKIFEEEEVEFIS
In the case of B1, the binding entry in test [1] and in test [2] was “binds” in each case.
